Laboratory results published in patent US20080260722A1, “Method for High Efficiency Survival/Proliferation of Human Embyonic Stem Cells and Human Embryo Survival in Culture” (The Johns Hopkins University Johns Hopkins Technology …, priority 2004, published 2008).
At least one compound was matched to its structure with a doubt left.

Test system: hES cells
Test: low-density survival assay in NTs without bFGF with pathway inhibitors
Format: cell-based, human
Conditions: single cells at low density in NTs, no bFGF, increasing inhibitor concentrations
Description: FIG. 8. PI-3K activity is required for hES cell survival; a. […] NTs have differential effects on AKT and MEK1/2 phosphorylation; hES cells were grown in the presence or absence of NTs (but without bFGF) and cell lysates probed with antibodies to phospho-AKT or phospho-MEK1/2; in the absence of NTs, a weak phospho-AKT band is observed; upon stimulation of hES cells with NTs a stronger band is observed; the intensity of the bands were compared to the total level of AKT and to a loading control (Beta-tubulin); in contrast no change in the level of phospho-MEK1/2 was observed by comparison with the controls.
Human ES cell lines H1 and H9 were cultured as described by Thornson and colleagues^15 in high glucose DMEM supplemented with L-glutanine, non-essential amino acids, serum replacement (Invitrogen) and 4 ng/ml basic Fibroblast growth factor (Invitrogen). Mouse embryo fibroblasts (MEFs) (Specialty Media). were plated at 5-7×10^6 cells/ml. To prepare single cell suspensions of hES cells, the cells were washed twice with PBS, then incubated in 0.05% trypsin/EDTA (InVitrogen) for 5 minutes at 37° C. […] For low-density survival assays, trypsinized cells were counted using a hemocytometer and 500 cells were plated in each well of 96-well plate containing MEFs or coated with Matrigel (BD Biosciences). […] Individual hES cells or hES cell colonies were counted manually on an inverted microscope. […]

With O=c1cc(N2CCOCC2)oc2c(-c3ccccc3)cccc12 [LY294002] the “effect on hES cell survival” value was “statistically different from the control”.
